# The whole screen tested about 300,000 compounds, of which about 5,400 (1.8%) were called active. This list was built around the results that the source calls inconclusive (neither active nor inactive); the mix of calls is not that of the screen. Calls follow the shape of the full dose curve; tested in HEK293 cells. Potencies beside an inconclusive call are fits to weak or partial responses and may not hold up.
# Test: qHTS for inhibitors of binding or entry into cells for Marburg Virus
# Conditions: Marburg virus pseudotyped entry inhibition, cell reporter; activity change, negative = inhibition: at 37.8 µM (top of the series) unless noted
# % is scaled to controls: 0 for no effect and ±100 for the full control effect; potency is read from the fitted curve at half-maximal effect.
Structure (SMILES),Potency,"activity change, negative = inhibition"
CCOc1ccc(CN(C)C(=O)CNC(=O)c2ccc3ccccc3c2)cc1OC,"inconclusive: 20 µM [inhibitor, partial curve, poor fit]",
Cc1nc2sc(C(=O)N(C)c3ccccc3)c(NC(=O)c3ccccc3Cl)c2c(C)c1C,,inactive: 11.8% [at 46.1 µM]
CNC(=S)N1CCN(c2nc(-c3ccc(Cl)cc3)cs2)CC1,"inconclusive: 25.1 µM [inhibitor, partial curve, poor fit]",
COc1ccc(Nc2nc(C)nc3c2nnn3Cc2ccccc2)cc1OC,"inconclusive: 15.8 µM [inhibitor, single point]",
C=CCOC(=O)C(C(C)=O)[C@@H](NC(=O)OC)c1cccs1 (some centres undefined),,inactive: -6.4% [at 14.2 µM]
COc1ccc(-c2nnc3n(CCc4ccccc4)c(=O)c4ccccc4n23)cc1OC,,inactive: -12.4%
CSc1ccc(C2c3c(oc4cc(C)cc(C)c4c3=O)C(=O)N2CCO)cc1 (centres undefined),"inconclusive: 3.98 µM [activator, full curve, poor fit]",
N#Cc1ccsc1NC(=O)COC(=O)c1ccc(NC(N)=O)cc1,"inconclusive: 3.98 µM [activator, partial curve, poor fit]",
Cc1cc(C)n(-c2nnc(NC34CC5CC(CC(C5)C3)C4)nn2)n1,"inconclusive: 5.01 µM [activator, full curve, poor fit]",
Cc1ccc(NC(=O)NNC(=O)c2cccs2)cc1,"inconclusive: 15.8 µM [activator, single point]",
COc1ccc(CCN2C(=NC(=O)C(C)C)SC3CS(=O)(=O)CC32)cc1 (centres undefined),"inconclusive: 35.5 µM [inhibitor, single point]",
CC(Sc1ccccc1)C(=O)N1CCN(S(=O)(=O)c2cccc(Br)c2)CC1 (centres undefined),"inconclusive: 17.8 µM [inhibitor, single point]",
CN1CCCCc2c1nc1c(c2N)CCCC1,"inconclusive: 29.1 µM [inhibitor, single point]",
Cn1c(=S)sc2ccc3ccccc3c21,"inconclusive: 7.08 µM [activator, full curve, poor fit]",
CCN1CCCC1CNC(=O)c1csc2c1CCCC2 (centres undefined),active: 23.1 µM,
CC[C@@H](C)[C@@H](C(=O)Nc1ccc(C)cc1)N1Cc2ccccc2C1=O,,inactive: -10.6% [at 46.1 µM]
OC1CN=C2CCCc3c2n(c2ccc(Cl)cc32)C1 (centres undefined),,inactive: -5.53%

# Some of the entries so far, as tab-separated lines:
Structure (SMILES)	Potency	activity change, negative = inhibition
CN1CCCCc2c1nc1c(c2N)CCCC1	inconclusive: 29.1 µM [inhibitor, single point]	
Cn1c(=S)sc2ccc3ccccc3c21	inconclusive: 7.08 µM [activator, full curve, poor fit]	

# (list continues)

Structure (SMILES),Potency,"activity change, negative = inhibition"
COc1cccc([C@@H]2Oc3ccc(Br)cc3C(=O)[C@@H]2OC(=O)Nc2ccc(OC(F)F)cc2)c1,"inconclusive: 3.76 µM [activator, single point]",
CCOc1ccc(CCNC(=O)c2[nH]c(C)c(C(C)=O)c2CC)cc1OCC,"inconclusive: 35.5 µM [inhibitor, single point]",
CCOc1ccc(C(=O)NCC(=O)OCc2c(F)cccc2Cl)cc1,"inconclusive: 35.5 µM [activator, partial curve, poor fit]",
Cc1ccc(Nc2nc3ccc(Cl)cc3n3cnnc23)cc1F,"inconclusive: 3.16 µM [inhibitor, single point]",
COc1cc2c(cc1NC(=O)COC(=O)[C@@H](NS(=O)(=O)c1cccc(Cl)c1)C(C)C)oc1ccccc12,"inconclusive: 20.6 µM [inhibitor, single point]",
O=C(c1ccccc1)N1CCN(c2ncnc3c2cnn3-c2ccccc2)CC1,"inconclusive: 14.1 µM [inhibitor, single point]",
CN1CCN(CC(=O)NN(Cc2ccccc2)c2ccccc2)CC1,"inconclusive: 15.8 µM [inhibitor, single point]",
CC1CCCC(C)N1c1ccc(S(=O)(=O)N2CCOCC2)cc1Cl (centres undefined),"inconclusive: 5.01 µM [inhibitor, partial curve]",
COc1ccc2oc(=O)c(C(=O)NC(C)c3ccccc3)cc2c1 (centres undefined),,inactive: 1.11% [at 46.1 µM]
O=S(=O)(Nc1cccc2cccnc12)c1ccc(S(=O)(=O)N2CCCC2)cc1,"inconclusive: 7.3 µM [inhibitor, partial curve]",
COc1ccc(-c2cc(C(=O)Nc3sc4c(c3C#N)CCCC4)c3ccccc3n2)cc1,"inconclusive: 5.62 µM [inhibitor, single point]",
COc1ccc(-c2nsc3c(N4CCCC4)ncnc23)cc1,"inconclusive: 3.26 µM [inhibitor, full curve, poor fit]",
CNC(=O)c1nn(C)c(=O)[nH]c1=O,"inconclusive: 7.08 µM [activator, full curve]",
CCCCCCC(C)(C)c1ccc([C@@H]2C[C@H](O)CC[C@@H]2CCCO)c(O)c1,active: 13 µM,
COc1ccc(S(=O)(=O)N2CCN(CC(=O)Nc3c(C)n[nH]c3C)CC2)cc1OC,"inconclusive: 0.794 µM [inhibitor, single point]",
Cc1ccccc1S(=O)(=O)c1cc2ccccc2nc1N,,inactive: 0.613% [at 46.1 µM]
CN(C)c1ccnc(Nc2ccccc2)c1C#N,,inactive: 0.872% [at 46.1 µM]
